According to patent publication US9220760B2, “Method of modulating the proliferation of medullary thyroid carcinoma cells” (The Administrators of the Tulane Educational Fund, priority 2001, dated 2015):
pKi: −log10 of the molar value. At least one peptide structure holds a part that was inferred or is arguable (an end, a ring closure or a residue).

By UniProt entry, the sequences of proteins in these tests, tags left out. Where a name states a change or a piece, a line headed by the entry shows the natural chain unless it says otherwise.
UniProt P35346: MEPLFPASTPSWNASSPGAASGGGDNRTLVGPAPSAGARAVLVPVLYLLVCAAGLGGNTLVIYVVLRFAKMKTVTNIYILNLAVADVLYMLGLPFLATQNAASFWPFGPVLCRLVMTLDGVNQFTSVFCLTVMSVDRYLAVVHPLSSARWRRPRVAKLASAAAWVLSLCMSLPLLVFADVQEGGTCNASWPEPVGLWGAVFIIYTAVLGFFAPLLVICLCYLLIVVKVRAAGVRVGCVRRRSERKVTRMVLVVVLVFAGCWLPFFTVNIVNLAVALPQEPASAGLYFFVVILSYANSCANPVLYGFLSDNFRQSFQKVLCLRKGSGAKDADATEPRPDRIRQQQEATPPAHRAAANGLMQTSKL

What was measured:
human MTC cell line TT = assay: TT cell proliferation ([…] 96 MTS assay, viable cell number); format: cell-based; conditions: 10^-7 M with Compound 2 10^-7 M, FIG. 7 lower panel
Experimental: Cells were incubated in 96-well plates for 48 hours in a culture medium supplemented with SS analogues at various concentrations (10^−9, 10^−8, 10^−7, and 10^−6 M). Control wells were treated with vehicle solution. TT cell proliferation was measured as absorbance at […] of each well. Data from six individual experiments were evaluated independently with eight replicates expressed as the mean±SEM percent cell proliferation inhibition versus untreated control cells *P<0.05 and **P<0.01 vs. control.
(§1) Control wells were treated with vehicle solution. TT cell proliferation was measured as absorbance at […] of each well. Data from six individual experiments were evaluated independently with eight replicates expressed as the mean±SEM percent cell proliferation inhibition versus untreated control cells *P<0.05 and **P<0.01 vs. control.
as §1, with “solution and” for “solution.”
The effects of SSTR selective agonists and antagonists on TT cell proliferation were assessed by the […] […] The absorbance at 490 nm was then recorded using an ELISA plate reader (EASIA Reader, Medgenix, Camarillo, Calif.). […]

human SSTR5 = biological target: T1, human SSTR5 (Homo sapiens, UniProt P35346); assay: Radioligand membrane receptor binding assay, SSTR5; conditions: CHO-K1 membranes, [125I-Tyr11]SS-14; read-out: Human somatostatin receptor subtype specificity, Ki, receptor subtype 5
T1 construct: expressed in transfected cells

Compound: C[C@@H](O)[C@@H]1NC(=O)[C@H](CCCCN)NC(=O)[C@@H](Cc2c[nH]c3ccccc23)NC(=O)[C@H](Cc2ccncc2)NC(=O)[C@H](NC(=O)[C@@H](N)Cc2ccc(Cl)cc2)CSSC[C@@H](C(=O)N[C@@H](Cc2ccc3ccccc3c2)C(N)=O)NC1=O [Compound 6, Cpa-cyclo(D-Cys-4-Pal-D-Trp-Lys-Thr-Cys)-Nal-NH2]
- Effect of antagonist on antiproliferative activity of Compound 2 (human MTC cell line TT): block completely
- pKi (human SSTR5): 7.06
